One assay concerns the target T1, HACE1-Myc (UniProt Q8IYU2).
T1 sequence: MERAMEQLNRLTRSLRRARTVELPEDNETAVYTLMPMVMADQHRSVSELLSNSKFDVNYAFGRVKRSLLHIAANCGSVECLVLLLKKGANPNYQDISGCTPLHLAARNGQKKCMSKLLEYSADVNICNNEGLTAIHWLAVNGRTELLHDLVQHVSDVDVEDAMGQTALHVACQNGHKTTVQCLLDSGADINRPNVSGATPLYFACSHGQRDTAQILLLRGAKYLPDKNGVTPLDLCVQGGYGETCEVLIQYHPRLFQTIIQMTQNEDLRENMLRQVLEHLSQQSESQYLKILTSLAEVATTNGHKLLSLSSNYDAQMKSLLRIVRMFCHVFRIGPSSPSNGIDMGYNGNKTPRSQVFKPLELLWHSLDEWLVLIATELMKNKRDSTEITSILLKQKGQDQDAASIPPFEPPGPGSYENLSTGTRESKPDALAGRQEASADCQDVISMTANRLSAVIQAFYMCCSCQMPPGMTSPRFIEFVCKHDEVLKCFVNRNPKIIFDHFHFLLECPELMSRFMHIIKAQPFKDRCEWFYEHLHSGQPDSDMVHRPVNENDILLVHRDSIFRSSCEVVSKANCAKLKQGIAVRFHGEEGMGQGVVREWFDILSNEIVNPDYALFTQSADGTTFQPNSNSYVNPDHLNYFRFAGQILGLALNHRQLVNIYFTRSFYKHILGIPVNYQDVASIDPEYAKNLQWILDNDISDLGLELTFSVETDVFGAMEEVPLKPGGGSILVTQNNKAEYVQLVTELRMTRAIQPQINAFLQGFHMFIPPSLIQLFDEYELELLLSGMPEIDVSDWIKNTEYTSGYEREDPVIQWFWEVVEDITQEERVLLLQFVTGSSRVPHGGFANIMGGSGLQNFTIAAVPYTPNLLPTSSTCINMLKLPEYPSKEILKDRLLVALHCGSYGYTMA
The assay is described as follows: co-IP; HEK-293T cells co-transfected with PKR-Flag and HACE1-Myc (or empty vectors), lysed, immunoprecipitated with anti-MYC or anti-Flag, Western blotting; also with circRNA-CREIT overexpression vector, which increased the PKR-Flag precipitated by HACE1-Myc.

Chains of the proteins cited; added tags and fusions are not shown.
UniProt P19525: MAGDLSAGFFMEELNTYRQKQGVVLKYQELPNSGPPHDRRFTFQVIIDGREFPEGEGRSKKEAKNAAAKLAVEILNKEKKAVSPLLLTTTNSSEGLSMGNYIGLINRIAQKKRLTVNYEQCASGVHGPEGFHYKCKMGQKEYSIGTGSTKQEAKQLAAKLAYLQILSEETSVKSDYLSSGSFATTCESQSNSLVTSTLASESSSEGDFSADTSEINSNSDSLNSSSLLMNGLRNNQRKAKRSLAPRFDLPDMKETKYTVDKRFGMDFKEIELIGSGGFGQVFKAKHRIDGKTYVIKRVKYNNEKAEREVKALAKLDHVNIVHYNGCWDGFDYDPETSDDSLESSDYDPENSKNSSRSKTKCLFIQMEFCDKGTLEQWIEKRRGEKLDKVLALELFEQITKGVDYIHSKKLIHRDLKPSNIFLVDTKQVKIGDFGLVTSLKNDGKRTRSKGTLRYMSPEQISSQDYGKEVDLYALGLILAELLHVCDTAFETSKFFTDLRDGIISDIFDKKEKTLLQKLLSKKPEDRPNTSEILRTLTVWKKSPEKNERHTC

A further assay addresses T2, HACE1-Flag (UniProt Q8IYU2).
T2 sequence: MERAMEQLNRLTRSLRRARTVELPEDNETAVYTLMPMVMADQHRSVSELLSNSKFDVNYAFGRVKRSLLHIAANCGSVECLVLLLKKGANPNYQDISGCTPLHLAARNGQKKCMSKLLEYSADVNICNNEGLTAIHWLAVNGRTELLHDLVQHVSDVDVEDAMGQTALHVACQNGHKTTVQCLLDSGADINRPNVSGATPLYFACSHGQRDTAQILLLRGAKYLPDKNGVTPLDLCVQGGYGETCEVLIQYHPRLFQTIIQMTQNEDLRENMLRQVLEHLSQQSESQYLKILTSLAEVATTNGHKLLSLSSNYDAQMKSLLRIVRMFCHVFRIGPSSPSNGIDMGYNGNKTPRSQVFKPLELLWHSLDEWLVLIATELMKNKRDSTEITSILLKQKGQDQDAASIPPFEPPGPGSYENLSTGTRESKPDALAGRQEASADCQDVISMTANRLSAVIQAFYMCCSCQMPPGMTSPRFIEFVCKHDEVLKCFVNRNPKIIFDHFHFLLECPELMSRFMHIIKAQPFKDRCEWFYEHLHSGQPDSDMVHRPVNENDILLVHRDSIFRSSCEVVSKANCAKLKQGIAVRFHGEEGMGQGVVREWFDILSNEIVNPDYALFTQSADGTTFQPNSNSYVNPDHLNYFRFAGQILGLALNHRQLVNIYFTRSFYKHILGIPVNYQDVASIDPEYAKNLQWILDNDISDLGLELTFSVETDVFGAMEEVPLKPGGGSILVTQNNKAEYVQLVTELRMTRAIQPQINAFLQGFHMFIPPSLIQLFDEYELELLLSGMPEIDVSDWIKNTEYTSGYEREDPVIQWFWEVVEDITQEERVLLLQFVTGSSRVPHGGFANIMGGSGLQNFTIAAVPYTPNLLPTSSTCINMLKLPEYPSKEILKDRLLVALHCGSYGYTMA
The assay is described as follows: co-IP; HEK-293T cells transfected with HACE1-Flag or PKR-Flag, lysed, immunoprecipitated with anti-Flag, Western blotting with anti-PKR or anti-HACE1 (endogenous partner).

The target of assay [1] is PKR-Flag (UniProt P19525). The assay is described as above.
For assay [2], the target named is PKR-Flag (UniProt P19525). Briefly: co-IP; HEK-293T cells co-transfected with PKR-Flag and HACE1-Myc (or empty vectors), lysed, immunoprecipitated with anti-MYC or anti-Flag, Western blotting; also with circRNA-CREIT overexpression vector, which increased the PKR-Flag precipitated by HACE1-Myc. A general note: In western blotting, separated proteins are transferred to a membrane and probed.

Results are given in words; binding and its absence hold for the method and conditions named. Binding seen in cells or lysates may run through a third protein. Some binding calls cover weakened binding; strength is not graded here. For some of these results: Tags and fused reporters may be left off the sequences shown.

Consider “PKR-Flag (from UniProt P19525 1-551) (enzyme)”, for which, in the assay with HACE1-Myc, the binding entry is “binds”.
Consider “endogenous PKR (from UniProt P19525 1-551) (enzyme)”, for which the binding result with HACE1-Flag is recorded as “binds”.

B1: endogenous HACE1 (enzyme, UniProt Q8IYU2 1-909)
chain: MERAMEQLNRLTRSLRRARTVELPEDNETAVYTLMPMVMADQHRSVSELLSNSKFDVNYAFGRVKRSLLHIAANCGSVECLVLLLKKGANPNYQDISGCTPLHLAARNGQKKCMSKLLEYSADVNICNNEGLTAIHWLAVNGRTELLHDLVQHVSDVDVEDAMGQTALHVACQNGHKTTVQCLLDSGADINRPNVSGATPLYFACSHGQRDTAQILLLRGAKYLPDKNGVTPLDLCVQGGYGETCEVLIQYHPRLFQTIIQMTQNEDLRENMLRQVLEHLSQQSESQYLKILTSLAEVATTNGHKLLSLSSNYDAQMKSLLRIVRMFCHVFRIGPSSPSNGIDMGYNGNKTPRSQVFKPLELLWHSLDEWLVLIATELMKNKRDSTEITSILLKQKGQDQDAASIPPFEPPGPGSYENLSTGTRESKPDALAGRQEASADCQDVISMTANRLSAVIQAFYMCCSCQMPPGMTSPRFIEFVCKHDEVLKCFVNRNPKIIFDHFHFLLECPELMSRFMHIIKAQPFKDRCEWFYEHLHSGQPDSDMVHRPVNENDILLVHRDSIFRSSCEVVSKANCAKLKQGIAVRFHGEEGMGQGVVREWFDILSNEIVNPDYALFTQSADGTTFQPNSNSYVNPDHLNYFRFAGQILGLALNHRQLVNIYFTRSFYKHILGIPVNYQDVASIDPEYAKNLQWILDNDISDLGLELTFSVETDVFGAMEEVPLKPGGGSILVTQNNKAEYVQLVTELRMTRAIQPQINAFLQGFHMFIPPSLIQLFDEYELELLLSGMPEIDVSDWIKNTEYTSGYEREDPVIQWFWEVVEDITQEERVLLLQFVTGSSRVPHGGFANIMGGSGLQNFTIAAVPYTPNLLPTSSTCINMLKLPEYPSKEILKDRLLVALHCGSYGYTMA
For B1, the binding entry with PKR-Flag [1] is on record as “binds”.

B2: HACE1-Myc (enzyme, UniProt Q8IYU2 1-909)
chain: MERAMEQLNRLTRSLRRARTVELPEDNETAVYTLMPMVMADQHRSVSELLSNSKFDVNYAFGRVKRSLLHIAANCGSVECLVLLLKKGANPNYQDISGCTPLHLAARNGQKKCMSKLLEYSADVNICNNEGLTAIHWLAVNGRTELLHDLVQHVSDVDVEDAMGQTALHVACQNGHKTTVQCLLDSGADINRPNVSGATPLYFACSHGQRDTAQILLLRGAKYLPDKNGVTPLDLCVQGGYGETCEVLIQYHPRLFQTIIQMTQNEDLRENMLRQVLEHLSQQSESQYLKILTSLAEVATTNGHKLLSLSSNYDAQMKSLLRIVRMFCHVFRIGPSSPSNGIDMGYNGNKTPRSQVFKPLELLWHSLDEWLVLIATELMKNKRDSTEITSILLKQKGQDQDAASIPPFEPPGPGSYENLSTGTRESKPDALAGRQEASADCQDVISMTANRLSAVIQAFYMCCSCQMPPGMTSPRFIEFVCKHDEVLKCFVNRNPKIIFDHFHFLLECPELMSRFMHIIKAQPFKDRCEWFYEHLHSGQPDSDMVHRPVNENDILLVHRDSIFRSSCEVVSKANCAKLKQGIAVRFHGEEGMGQGVVREWFDILSNEIVNPDYALFTQSADGTTFQPNSNSYVNPDHLNYFRFAGQILGLALNHRQLVNIYFTRSFYKHILGIPVNYQDVASIDPEYAKNLQWILDNDISDLGLELTFSVETDVFGAMEEVPLKPGGGSILVTQNNKAEYVQLVTELRMTRAIQPQINAFLQGFHMFIPPSLIQLFDEYELELLLSGMPEIDVSDWIKNTEYTSGYEREDPVIQWFWEVVEDITQEERVLLLQFVTGSSRVPHGGFANIMGGSGLQNFTIAAVPYTPNLLPTSSTCINMLKLPEYPSKEILKDRLLVALHCGSYGYTMA
As to B2, the binding entry with PKR-Flag [2] is recorded as “binds”.

Source of the values: paper PMC9425971.
